Measured values published in patent US20160340421A1.
Residue numbers refer to the chain shown, from its start. Results are given in words; binding and its absence hold for the method and conditions named. Some binding calls cover weakened binding; strength is not graded here. Values belong to the binder of their own block, whether it stands above or below them.

Experiments:
[1] = target: 8D12; test: Western blot with antibody pre-incubated with peptide, 50 fold molar excess
[2] = target: T1, B91 chimera: GDF8.1-90.BMP2.96-110.GDF8.106-109; test: Western blot of CHO.hFurin supernatant, antibody 2 µg/ml
T1 sequence: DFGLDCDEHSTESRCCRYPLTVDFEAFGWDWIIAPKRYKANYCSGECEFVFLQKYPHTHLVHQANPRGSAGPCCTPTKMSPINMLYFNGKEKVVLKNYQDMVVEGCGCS

[3] = target: T2, B65 chimera: GDF8.1-64.BMP2.68-77GDF8.73-109 (Mus musculus (Mouse)) (UniProt O08689); test: as above
T2 sequence: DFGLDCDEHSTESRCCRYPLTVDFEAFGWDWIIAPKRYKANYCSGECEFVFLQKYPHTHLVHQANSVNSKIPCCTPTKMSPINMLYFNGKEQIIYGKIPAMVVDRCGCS

[4] = target: T3, T65 chimera: GDF8.1-64.TGFβ1.69-76.GDF8.73-109 (Mus musculus (Mouse)) (UniProt O08689); test: as above
T3 sequence: T2 sequence with S66P, V67G, N68A, K70A, I71A

[5] = target: T4, hGDF8 peptide 8 (52-72), unmodified (human); test: Luminex peptide beads, antibody 2.5 µg/ml
T4 sequence (peptide): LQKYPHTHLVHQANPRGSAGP

[6] = target: T5, hGDF8 peptide 6 (48-72), unmodified (human); test: Luminex peptide beads, antibody 2.5 µg/ml
T5 sequence (peptide): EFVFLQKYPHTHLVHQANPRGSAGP

[7] = target: T6, hGDF8 peptide 7 (52-65), unmodified (human); test: Luminex peptide beads, antibody 2.5 µg/ml
T6 sequence (peptide): LQKYPHTHLVHQAN

[8] = target: T7, hGDF8 peptide 5 (48-69), C-terminal biotinylated (human); test: Luminex peptide beads, antibody 2.5 µg/ml
T7 sequence (peptide, C-terminal biotin): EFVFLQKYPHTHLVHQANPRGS

[9] = target: T8, hGDF8 peptide 6 (48-72), C-terminal biotinylated (human); test: Luminex peptide beads, antibody 2.5 µg/ml
T8 sequence (peptide, C-terminal biotin): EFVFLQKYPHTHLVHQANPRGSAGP

[10] = target: T9, hGDF8 peptide 7 (52-65), C-terminal biotinylated (human); test: Luminex peptide beads, antibody 2.5 µg/ml
T9 sequence (peptide, C-terminal biotin): LQKYPHTHLVHQAN

[11] = target: T10, hGDF8 peptide 9 (56-65), C-terminal biotinylated (human); test: Luminex peptide beads, antibody 2.5 µg/ml
T10 sequence (peptide, C-terminal biotin): PHTHLVHQAN

[12] = target: T11, hGDF8 peptide 12 (73-90), C-terminal biotinylated (human); test: Luminex peptide beads, antibody 2.5 µg/ml
T11 sequence (peptide, C-terminal biotin): CCTPTKMSPINMLYFNGK

[13] = target: T12, hGDF8 peptide 6 (48-72), N-terminal biotinylated (human); test: Luminex peptide beads, antibody 2.5 µg/ml
T12 sequence (peptide, N-terminal biotin): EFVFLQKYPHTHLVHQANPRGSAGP

[14] = target: T13, hGDF8 peptide 8 (52-72), C-terminal biotinylated (human); test: Luminex peptide beads, antibody 2.5 µg/ml
T13 sequence (peptide, C-terminal biotin): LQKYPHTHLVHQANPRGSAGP

[15] = target: T14, hGDF8 peptide 5 (48-69), unmodified (human); test: Luminex peptide beads, antibody 2.5 µg/ml
T14 sequence (peptide): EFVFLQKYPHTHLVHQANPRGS

[16] = target: T15, hGDF8 peptide 4 (48-65), C-terminal biotinylated (human); test: Luminex peptide beads, antibody 2.5 µg/ml
T15 sequence (peptide, C-terminal biotin): EFVFLQKYPHTHLVHQAN

[17] = target: T16, hGDF8 peptide 4 (48-65), unmodified (human); test: Luminex peptide beads, antibody 2.5 µg/ml
T16 sequence (peptide): EFVFLQKYPHTHLVHQAN

binding [1]: binds
B1: hGDF8 peptide 6 (48-72), unmodified (peptide)
peptide: EFVFLQKYPHTHLVHQANPRGSAGP

binding [2]: binds
binding [3]: binds
binding [4]: binds
binding [5]: binds
binding [6]: binds
binding [7]: binds
binding [8]: binds
binding [9]: binds
binding [10]: binds
binding [11]: binds
binding [12]: binds
binding [13]: binds
binding [14]: binds
binding [15]: binds
binding [16]: binds
binding [17]: binds
B2: 8D12 (antibody, V domains shown)
VH: QVQLVESGGGVVQPGRSLRLSCAASGFTFSRYGIHWVRQAPGKGLEWVAVISYDGSDEYYVDSVKGRFSISRDNSKNTLYLQMNSLRPADSAVYYCVKGDLELGFDYWGQGTLVTVSS
VL: DIVMTQAAPSIPVIPGESVSMSCRSSKSLLYSNGHTYVYWFVQRPGQSPQLLIYRMSNLASGVPDRFSGSGSGTAFTLRISRVEAEDVGVYYCMQNLEFPLTFGAGTKLELK

binding [3]: binds
B3: 1A2 (antibody, V domains shown)
VH: EVQLLESGGGLVQPGGSLRLSCAASGFTSITYAMSWVRQAPGKGLEWVSAISVSGTNTYYADSVKGRFTISRDKSKNMLYLQMNSLRAEDTAVYYCAKDLLHNWKYGTFDIWGQGTMVTVSS
VL: EIVMTQSPATLSVSPGERATLSCRASQSVDSNLVWYQQKPGQVPRLLIYGASTRATGIPARFSGSGSGTEFTLTISSLQSEDFAVYYCQQYNKWPLTFGGGTKVEIK
